Laboratory results: PubChem BioAssay AID1224830 (NIAID, 2016)
Assay: 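Genes whose knock-down alters the TNF-alpha reporter response to LPS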 (primary screen). Cells: human THP-1 monocytic leukaemia cells, TNF dual-luciferase reporter clone, PMA-differentiated to macrophage-like cells. Reagents: siRNA pool against human genes, 50 nM. Time to read-out: LPS for 4 h, given about 3 days after siRNA transfection. Treatment: bacterial LPS (TLR4 ligand), 10 ng/ml. Read-out: 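TNF firefly reporter luminescence divided by renilla, normalised to the plate median, then turned into a robust z-score for each replicate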. Scale: TNF reporter robust z-score: higher = stronger TNF reporter response to LPS. Active means: 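a well is active when its z-score exceeds 2.8 or falls below -1.5; control wells carry no call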.
Here is one part, drawn at random, of about 18,000 reagents. In the full data, about 2,900 (16%) were called active. 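Calls are made per well; low scores hint the gene aids the LPS response, high scores that it dampens it.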 Repeated entries: four replicate wells of each siRNA pool.

Gene	TNF reporter robust z-score	activity call
CYP2C19	-0.41	inactive
CYP2C19	-0.97	inactive
CYP2C19	-0.98	inactive
CYP2C19	0.28	inactive
EPX	0.19	inactive
EPX	0.53	inactive
EPX	0.16	inactive
EPX	1.35	inactive
CEACAM21	-0.66	inactive
CEACAM21	-1.54	active
CEACAM21	-0.63	inactive
CEACAM21	-0.67	inactive
MEF2A	1.04	inactive
MEF2A	2.49	inactive
MEF2A	3.67	active
MEF2A	4.06	active
TLR7	0.34	inactive
TLR7	-0.44	inactive
TLR7	0.88	inactive
TLR7	-0.18	inactive
OR5K2	-0.85	inactive
OR5K2	0.03	inactive
OR5K2	-1.86	active
OR5K2	0.05	inactive
ANGPTL2	0.51	inactive
ANGPTL2	2.1	inactive
ANGPTL2	0.04	inactive
ANGPTL2	1.61	inactive
UFD1	0.11	inactive
UFD1	1.43	inactive
UFD1	1.71	inactive
UFD1	1.6	inactive
SCG5	1.68	inactive
SCG5	1.3	inactive
SCG5	0.76	inactive
F8A3	1.61	inactive
F8A3	1.77	inactive
F8A3	-0.04	inactive
F8A3	0.65	inactive
CCDC107	-0.5	inactive
CCDC107	0.1	inactive
CCDC107	-0.13	inactive
CCDC107	-1.23	inactive
KDM4C	1.41	inactive
KDM4C	1.27	inactive
KDM4C	1.71	inactive
KDM4C	0.8	inactive
NDUFS8	0	inactive
NDUFS8	2.56	inactive
NDUFS8	1.86	inactive
NDUFS8	1.26	inactive
ARHGAP10	1.7	inactive
ARHGAP10	2.36	inactive
ARHGAP10	3.56	active
ARHGAP10	0.92	inactive
KRT81	-0.93	inactive
KRT81	-1	inactive
KRT81	-0.44	inactive
KRT81	-1.06	inactive
ANKK1	-0.55	inactive
ANKK1	0.25	inactive
ANKK1	0.55	inactive
ANKK1	1.39	inactive
UPF2	0.04	inactive
UPF2	0.45	inactive
UPF2	0.73	inactive
UPF2	0.28	inactive
SHANK2	-0.19	inactive
SHANK2	0.35	inactive
SHANK2	0.56	inactive
SHANK2	1.21	inactive
YIPF7	-1.45	inactive
YIPF7	-0.99	inactive
YIPF7	-0.62	inactive
YIPF7	-0.66	inactive

8 of these entries, reformatted:
Gene,TNF reporter robust z-score,activity call
ARHGAP10,2.36,inactive
ARHGAP10,3.56,active
ARHGAP10,0.92,inactive
KRT81,-0.93,inactive
KRT81,-1,inactive
KRT81,-0.44,inactive
KRT81,-1.06,inactive
ANKK1,-0.55,inactive
